Some of the results follow.

Protein sequences, listed by entry. Tags and fused reporters are not part of them.
UniProt Q0JBA9, entry or part of it: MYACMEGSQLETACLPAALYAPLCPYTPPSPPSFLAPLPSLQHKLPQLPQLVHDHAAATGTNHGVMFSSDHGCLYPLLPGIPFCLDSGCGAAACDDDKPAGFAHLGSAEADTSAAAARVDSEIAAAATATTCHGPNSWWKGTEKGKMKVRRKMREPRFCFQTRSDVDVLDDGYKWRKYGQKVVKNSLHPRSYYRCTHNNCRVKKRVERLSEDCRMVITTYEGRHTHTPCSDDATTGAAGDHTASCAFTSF

This passage reports binding signal results from paper PMC7819943, “Rice protein-binding microarrays: a tool to detect cis-acting elements near promoter regions in rice”.

For this test, the target named is OsWRKY34 (Oryza sativa, UniProt Q0JBA9 1-250). Put plainly: protein-binding microarray (RPBM); PBS, 2% BSA, 51.3 ng/ul salmon testes DNA, 50 uM zinc acetate, 200 nM TF, 25 C, 1 h; high values mean tight binding. The following applies: protein: recombinant; tags: N-terminal polyhistidine and DsRed monomer fusion (pET32a); label: CyDye5-dUTP incorporated in the synthesized complementary strand; 3' TTTTT single-stranded linker to array surface; dsDNA, one strand shown. The method in brief: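 A custom Agilent array was converted to double-stranded form by primer extension with Cy5-dUTP and blocked with 2% BSA. Protein at 200 nM in PBS with 2% BSA, salmon testes DNA and 50 µM zinc acetate was applied for 1 h at 25 °C, followed by washing. The proteins were polyhistidine–DsRed N-terminal fusions of transcription factors, expressed in E. coli BL21-CodonPlus and Ni–NTA-purified. The binding signal is per-feature fluorescence intensity (arbitrary units) from an Axon 4000B scanner.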
As to “AAGTTAAGCAGATCTTCCAGGCCAGTGTGTGTTTTTCGCACGGAGTCACCTAGTGCAG”, the binding signal is 9700 fluorescence intensity (a.u.).

“CTTGACGCGTGCCCATTCTCCAACCCATGTCCGGCTAGGACGGAGTCACCTAGTGCAG”: the binding signal is 8600 fluorescence intensity (a.u.). The value for “GAATGGGTTATCTCAGTTAATTCCAACCTATCCTTTGGGTCGGAGTCACCTAGTGCAG” was 9490 fluorescence intensity (a.u.); that for “CCATTCCTCAGTTAGTTCCAATGCATGCAGTTCCTGTCCTCGGAGTCACCTAGTGCAG” was 9000 fluorescence intensity (a.u.). The value for “ATTACCGCATGATTAATTAAATATTTACTATTTTTTTTCACGGAGTCACCTAGTGCAG” was 9980 fluorescence intensity (a.u.); that for “TTTACCACGTTTCATTCCTTTTGTGATGTTACCACACTAGCGGAGTCACCTAGTGCAG” was 8130 fluorescence intensity (a.u.); that for “ACACATCAATGTCGTTACCAGGTCACCATGTGCATCTACACGGAGTCACCTAGTGCAG” was 9860 fluorescence intensity (a.u.). Take “ACATATTTGCCCCTTCACTTTGACCATGAAACGCGCAAAACGGAGTCACCTAGTGCAG”: the binding signal is 8040 fluorescence intensity (a.u.). The value for “GCGTTATTTCCTGTGCATAAATTTAGTTTACTTAGTTAGACGGAGTCACCTAGTGCAG” was 8040 fluorescence intensity (a.u.). The value for “ATTTGTTTTGGACCTCTAATTGTTTCTTGAATTCTCTTCTCGGAGTCACCTAGTGCAG” was 10300 fluorescence intensity (a.u.); that for “TACAGTAGTAGTACCATGGTTTAATTATTTGTAGCCTTATCGGAGTCACCTAGTGCAG” was 8900 fluorescence intensity (a.u.). The value for “CGAACCCGTCCGTCGTCCGCCACGGCGCCACCACGCCGCCCGGAGTCACCTAGTGCAG” was 9130 fluorescence intensity (a.u.). As for “TCTAAATAGTATTTAGCACACTCATCTTCTAGGATTTGTCCGGAGTCACCTAGTGCAG”, the binding signal was 8290 fluorescence intensity (a.u.).

Turning to “TTCATCATTCTCTTTCTTTCTTATGTTAACCTCGTACTACCGGAGTCACCTAGTGCAG”, the binding signal is 8940 fluorescence intensity (a.u.).

Regarding “CGCTAATCCACCTATTTTTATTCTTCTCTCCCACCCCAAACGGAGTCACCTAGTGCAG”, the binding signal was 8240 fluorescence intensity (a.u.). Regarding “CTTCTCCTGCATGGCAAGTCGCTGATCACAACTACGCATCCGGAGTCACCTAGTGCAG”, the binding signal is 8250 fluorescence intensity (a.u.).

On to “GAGTCCGAATGTGGGCGGGAGATGTGGGCGTTGAGATATGCGGAGTCACCTAGTGCAG”, for which the binding signal was 8110 fluorescence intensity (a.u.). The value for “TCCCACGCAGCCACACTAGCTCCACTCAACTTGCGCTTCCCGGAGTCACCTAGTGCAG” was 9710 fluorescence intensity (a.u.); that for “GCCGTCGCCGCCGCCTTCGACCACTACACCGGCTACCCCGCGGAGTCACCTAGTGCAG” was 10200 fluorescence intensity (a.u.). The value for “CGATCCGTCCGTCCATGGAGTCCCGCTTTGACCCGCCTCCCGGAGTCACCTAGTGCAG” was 9040 fluorescence intensity (a.u.). The value for “ACGTACCAGCTCACTATCTCCATCACAAACGTTGAAAACGCGGAGTCACCTAGTGCAG” was 9020 fluorescence intensity (a.u.); that for “GTACTCCCTCTGACCCTAAATATTTGACGTCGTTGACTTTCGGAGTCACCTAGTGCAG” was 16300 fluorescence intensity (a.u.); that for “CCGCCTCCGCCTCCGCATCTACGCCTGATTGATCCCCACCCGGAGTCACCTAGTGCAG” was 8560 fluorescence intensity (a.u.). On to “GCTTGGGAATTGGGATGCTGGGAGAAACAAAAATAATAATCGGAGTCACCTAGTGCAG”, for which the binding signal was 8940 fluorescence intensity (a.u.).

For “ATGGAGAGTTGCATTCATATCCTGTACCTTTGTTTATCTACGGAGTCACCTAGTGCAG”, the binding signal is 10800 fluorescence intensity (a.u.). The value for “TTGTACCTCCATATAACCCAAGCAGTTAGCTAGCACTCAGCGGAGTCACCTAGTGCAG” was 8320 fluorescence intensity (a.u.). For the sequence “TTGAGATTCCTGCTGGGGCTGGGGTTGGGTTGAGATTCCCCGGAGTCACCTAGTGCAG”, the binding signal is 14600 fluorescence intensity (a.u.). The value for “CACCGATTTCTCCTCATTGAGCGAGCCTTGTGCCAACCTTCGGAGTCACCTAGTGCAG” was 10500 fluorescence intensity (a.u.); that for “GTTTTGGCCCACTCTATTTCCAGTTTAGAGAGCCCAAATTCGGAGTCACCTAGTGCAG” was 8500 fluorescence intensity (a.u.); that for “AACCTCCATCACCGGTGGACTCCACCCTATCCTCTGCAGCCGGAGTCACCTAGTGCAG” was 9570 fluorescence intensity (a.u.). As to “CTGCGCAATGCCTGCTGCCGTGCTCCGTCTCGAACTCTCGCGGAGTCACCTAGTGCAG”, the binding signal was 8040 fluorescence intensity (a.u.).

“GACCCGGCGGATCCGAGCCATCTGACATCCCCACTACTTCCGGAGTCACCTAGTGCAG”: the binding signal was 8830 fluorescence intensity (a.u.). “GGCGGTGGCGGCGGGGAGTTGGTGCGAGGGCGGCGACGCTCGGAGTCACCTAGTGCAG”: the binding signal is 9370 fluorescence intensity (a.u.).

Consider “TATTATATTGCAATTTCCATCCATCCGTTATATATACTTTCGGAGTCACCTAGTGCAG”, for which the binding signal was 13500 fluorescence intensity (a.u.). The value for “GTATAGTCAGCTGGTTATGCAGTGCATATCTATCTCATACCGGAGTCACCTAGTGCAG” was 9200 fluorescence intensity (a.u.).

Regarding “GAAAAAGTCAACGGCGTCATCTATTAAAAACGGGACTAGTCGGAGTCACCTAGTGCAG”, the binding signal was 8070 fluorescence intensity (a.u.). As for “CTTCAAACTTTTACTTTTTCTATCACATCAAAACTTTCTTCGGAGTCACCTAGTGCAG”, the binding signal is 8690 fluorescence intensity (a.u.). In the case of “TTCGTCTCCGGTCTTCGTTTTATCCCCTTCCTTCGTCTTCCGGAGTCACCTAGTGCAG”, the binding signal was 10200 fluorescence intensity (a.u.). The value for “CGCAGCCACGTGCATTCTTACGTACTCATCGGCGCATCGGCGGAGTCACCTAGTGCAG” was 9030 fluorescence intensity (a.u.); that for “ATATATATATATATATATATATATATATATATATCTCCTACGGAGTCACCTAGTGCAG” was 9040 fluorescence intensity (a.u.).

For “CCTTTTTTTTGGCGCAATATTTTTTTCTGTTTTTTTCTTTCGGAGTCACCTAGTGCAG”, the binding signal is 8030 fluorescence intensity (a.u.). The value for “GTCCTGTCAAGAGCGTGCATTATTGATCCATTTACCTGAACGGAGTCACCTAGTGCAG” was 8370 fluorescence intensity (a.u.).
